Results as given in PubChem BioAssay AID1347076 (National Center for Advancing Translational Sciences (NCATS), 2019).
Values joined by “and” are separate entries in the source; they are usually repeats but may differ in a detail not shown here. Identical values can stand only once. The whole screen tested about 400,000 compounds, of which about 13,000 (3.2%) were called active. The inconclusive results got no clear call from the source; some entries with a clear call stand among them for comparison. Calls come from the whole dose curve; as a rule, active = well fitted cell-killing curve with a large enough effect; inconclusive = small, poorly fitted or top-dose-only effect, or effect the other way; inactive = flat fitted curve, though single readings scatter. A potency beside an inconclusive call is a rough fit, not a confirmed value.

test: qHTS assay for MDR1-selective chemotherapeutics: Primary screen using the drug-selected MDR subline cells KB-V1; conditions: KB-V1 MDR cells viability, CellTiter-Glo, 72 h; series mostly up to 46.1 µM; note: nearly all actives have a fitted effect of over 60% in size
Outline: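 KB-V1 cells (P-gp-expressing MDR subline of KB-3-1) in phenol-red-free DMEM with 10% FBS were exposed to library compounds over a concentration series for 72 h at 37 degrees C. Viability read by CellTiter-Glo luminescence; concentration-effect curves fitted after normalization.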
Potency is the fitted concentration of half-maximal effect.

Structure (SMILES)	Potency
Cc1ccc(N2CC(C(=O)N3CCN(Cc4ccc5c(c4)OCO5)CC3)CC2=O)cc1 (stereo unspecified)	inconclusive: 20.6 µM [cytotoxic, partial curve, poor fit]
COc1ccc(C(=O)OCC(=O)c2ccc3c(c2)NC(=O)CO3)cc1OC	inconclusive: 18.4 µM [rising, single point]
Cc1ccc(C)n1-c1cc(S(=O)(=O)N2CCOCC2)ccc1N1CCCC1	inactive
COC(=O)c1cc(CNC(=O)c2ccccc2OCc2c(C)noc2C)ccc1OC	inactive
COc1ccc(NC(=O)c2cc(-c3ccc(C)o3)nc3ccccc23)cc1OC	active: 16.4 µM
O=C(c1cc2ccccc2oc1=O)N(Cc1ccco1)Cc1cccs1	active: 5.17 µM
CC1(C)OC(=O)C2=C(C[C@@H](CCc3ccccc3)O[C@@H]2c2ccc(Cl)cc2)O1	inactive
CCN(Cc1ccncc1)C(=S)NCc1ccccc1	inconclusive: 18.4 µM [cytotoxic, partial curve, poor fit]
Cc1cc2ccccc2c(=O)n1CC(=O)NCC(=O)N1CCN(c2ccccc2F)CC1	inconclusive: 5.17 µM [cytotoxic, partial curve, poor fit]
O=C(c1ccc(Cl)cc1)c1oc2ccccc2c1CS(=O)c1ccccc1 (stereo unspecified)	active: 5.17 µM
CCOC(=O)c1c(C)nc(C(Cl)(Cl)Cl)nc1N	inactive
S=C(NNc1ccnc2cc(Cl)ccc12)Nc1ccccc1Cl	inconclusive: 20.6 µM [cytotoxic, partial curve]
COc1ccc(S(=O)(=O)N2CCN(Cc3nc4ccc(C)cc4o3)CC2)cc1Cl	inactive
C#CCn1cc(/C=N/NC(=O)c2cc3ccccc3o2)c2ccccc21	inconclusive: 25.9 µM [cytotoxic, single point]
Cn1c(CN2CCOCC2)nnc1SCc1cccc(F)c1	inconclusive: 25.9 µM [rising, single point]
O=C(NCc1cccs1)c1cc(-c2ccccc2)nc2ccccc12	inconclusive: 23.1 µM [cytotoxic, single point]
COc1cccc(COC(=O)c2c(C)nn(-c3ccccc3)c2Cl)c1OC	inconclusive: 16.4 µM [cytotoxic, partial curve, poor fit]
COc1ccc(C(CNC(=O)COc2ccc(Br)cc2F)N2CCCC2)cc1 (stereo unspecified)	inconclusive: 8.2 µM [cytotoxic, partial curve, poor fit]
CCn1c(SCC(=O)N2CCCc3ccccc32)nc2c1c(=O)n(C)c(=O)n2C	active: 2.91 µM
O=C1NC(c2cccc3ccccc23)Nc2ccc(Cl)cc21 (stereo unspecified)	active: 0.231 µM
Cc1ccccc1NC(=O)c1ccc(COc2ccc3c(C)cc(=O)oc3c2)cc1	inactive
CN(C)c1oc(COc2ccc(F)cc2)nc1C#N	inconclusive: 23.1 µM [cytotoxic, partial curve, poor fit]
CCOc1ccc(N(CC(=O)N2CCCCC2)S(=O)(=O)c2ccc(Cl)cc2)cc1	inconclusive: 0.651 µM [rising, full curve]

Structure (SMILES)	Potency
Cc1ccc(-c2cc(C(F)(F)F)n3nc(C(=O)NCC45CC6CC(CC(C6)C4)C5)cc3n2)cc1	inconclusive: 29.1 µM [rising, single point]
CCOc1ccc(OCc2ccc(C(=O)Nc3cccnc3)o2)cc1	inconclusive: 20.6 µM [cytotoxic, single point]
c1csc(CN2CCN(Cc3cccs3)C2c2cccs2)c1	inconclusive: 23.1 µM [cytotoxic, partial curve]
O=C(O)C1(c2cccc(Cl)c2)CCC1	inconclusive: 25.9 µM [rising, single point]
CCOc1ccccc1NC(=O)c1c(NC(=O)c2cccc(C)c2)sc2c1CCC2	inactive
CCOc1ccc(S(=O)(=O)NC(C)C(=O)NCc2ccccn2)cc1 (stereo unspecified)	inactive
O=C(NCCSc1c[nH]c2ccccc12)c1c(F)cccc1F	inconclusive: 0.731 µM [rising, full curve, poor fit]
Cc1ccc(/C=N/NS(=O)(=O)c2ccccc2)o1	inactive
O=S(=O)(c1ccc(Cl)cc1)N1CCn2c1nc1ccccc12	inconclusive: 20.6 µM [cytotoxic, partial curve]
Cc1ccc2cc3cc(C(=O)NCc4ccco4)oc3nc2c1	inactive
CC(=O)Nc1cccc(-c2ccnc3c2CC(C(=O)Nc2ccc(Cl)cc2)O3)c1 (stereo unspecified)	inconclusive: 20.6 µM [cytotoxic, single point]
O=C(C1CC1)N1CCC(C(O)(c2ccccc2)c2ccccc2)CC1	inactive
CC(=O)c1c(C)[nH]c(C(=O)OCC(=O)Nc2cccc(S(=O)(=O)N3CCCC3)c2)c1C	inconclusive: 23.1 µM [cytotoxic, single point]
O=C(Cc1ccccc1[N+](=O)[O-])NCc1ccccc1Cl	inconclusive: 20.6 µM [cytotoxic, partial curve, poor fit]
COc1cc2nc(NCc3ccc(C)cc3)n3nc(-c4ccccc4)nc3c2cc1OC	inactive
Cc1ccc(-c2cc(C(=O)N/N=C/C(Br)=C/c3ccccc3)n[nH]2)o1	inconclusive: 29.1 µM [cytotoxic, partial curve, poor fit]
CCOC(=O)C(=CNc1cc(C)nn1-c1ccccc1)C(=O)OCC	active: 4.61 µM
Cc1ccc(NC(=O)CSc2nc3ccccc3nc2N2CCOCC2)cc1	inconclusive: 18.4 µM [cytotoxic, single point] and active: 18.4 µM
COc1cc(NC(=O)OCc2ccccc2)c2ncccc2c1	inactive
Cc1cc(NC(=O)c2cc(-c3cccs3)on2)nn1Cc1ccc(Cl)cc1	active: 9.2 µM
CCOC(=O)Nc1nnc(/C=C/c2ccc(OC)cc2)s1	inconclusive: 16.4 µM [cytotoxic, single point]
Fc1cccc(CSc2ncnc3c2oc2ccccc23)c1	inconclusive: 16.4 µM [cytotoxic, single point]
O=C(c1ccc(S(=O)(=O)N2CCCCCC2)cc1)N1CCN(c2ccccn2)CC1	inconclusive: 11.6 µM [cytotoxic, partial curve]
